Results published in publication PMC11707433.
Results are given in words; binding and its absence hold for the method and conditions named. Binding seen in cells or lysates may run through a third protein. Some results given as binding are weak or reduced against the parent protein; the word gives no strength.

Protein sequences, listed by entry. Tags and fused reporters are not part of them. Residues count along the entry.
UniProt Q08830, residues 23-312: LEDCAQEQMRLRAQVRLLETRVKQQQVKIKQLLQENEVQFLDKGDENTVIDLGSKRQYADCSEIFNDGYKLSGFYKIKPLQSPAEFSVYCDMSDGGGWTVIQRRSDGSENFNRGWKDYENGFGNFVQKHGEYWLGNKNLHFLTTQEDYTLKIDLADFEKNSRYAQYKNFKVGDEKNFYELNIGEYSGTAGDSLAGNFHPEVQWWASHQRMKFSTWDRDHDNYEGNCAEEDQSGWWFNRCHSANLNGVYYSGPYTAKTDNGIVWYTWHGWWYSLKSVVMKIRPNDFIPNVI
UniProt Q9NSP4: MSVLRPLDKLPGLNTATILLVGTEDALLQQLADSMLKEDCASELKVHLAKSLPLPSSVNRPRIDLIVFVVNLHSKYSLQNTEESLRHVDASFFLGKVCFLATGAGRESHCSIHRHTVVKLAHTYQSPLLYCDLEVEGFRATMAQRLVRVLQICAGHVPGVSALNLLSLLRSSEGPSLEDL

Biological target: FGL1 (fibrinogen-like protein 1) (human (endogenous in SW-13)) (UniProt Q08830)
Experiment: co-IP; SW-13 cell lysate (IP lysis buffer) incubated with FGL1 antibody or IgG overnight at 4°C, protein A/G agarose beads 4 h at RT; eluate blotted for CENPM

binding: binds
Substance: CENPM (from UniProt Q9NSP4 1-180)
